# Test results as given in article PMC7819943, “Rice protein-binding microarrays: a tool to detect cis-acting elements near promoter regions in rice”.
# The list shows a part of the results.
# Biological target: T1, OsSMF1 (Oryza sativa, UniProt Q6ZLB0 1-436)
# T1 sequence: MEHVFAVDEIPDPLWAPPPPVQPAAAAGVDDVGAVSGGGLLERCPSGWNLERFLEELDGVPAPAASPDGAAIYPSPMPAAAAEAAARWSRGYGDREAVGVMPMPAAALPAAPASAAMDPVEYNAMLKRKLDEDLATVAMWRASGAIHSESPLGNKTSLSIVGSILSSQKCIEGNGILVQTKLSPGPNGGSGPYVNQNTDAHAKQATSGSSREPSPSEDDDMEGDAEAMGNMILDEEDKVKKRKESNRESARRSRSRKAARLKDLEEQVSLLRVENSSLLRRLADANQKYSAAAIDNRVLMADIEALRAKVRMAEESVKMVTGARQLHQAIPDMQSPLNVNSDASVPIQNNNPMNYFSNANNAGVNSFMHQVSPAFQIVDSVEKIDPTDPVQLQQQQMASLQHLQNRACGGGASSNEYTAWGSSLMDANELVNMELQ
# Assay: protein-binding microarray (RPBM); PBS, 2% BSA, 51.3 ng/ul salmon testes DNA, 50 uM zinc acetate, 200 nM TF, 25 C, 1 h; high values mean tight binding
# Conditions: protein: recombinant; tags: N-terminal polyhistidine and DsRed monomer fusion (pET32a); chain copies: 2; label: CyDye5-dUTP incorporated in the synthesized complementary strand; 3' TTTTT single-stranded linker to array surface; dsDNA, one strand shown
# Summary of the method: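 For the binding signal, per-feature fluorescence intensity was read in arbitrary units on an Axon 4000B scanner. Before scanning, a 2% BSA-blocked custom Agilent array made double-stranded with Cy5-dUTP was washed after 1 h at 25 °C with 200 nM protein and 50 µM zinc acetate. The proteins were Ni–NTA-purified transcription factors with N-terminal polyhistidine and DsRed fusions, expressed in E. coli BL21-CodonPlus.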
row,Sequence,binding signal
1,TCAACAAGGAAATAAAATATCTGGTATTGTGGTTTTCAAGCGGAGTCACCTAGTGCAG,17600 fluorescence intensity (a.u.)
2,GCGGCGCGGCCGGGACTTGGCCGGCGTGGTCTGTCTGACACGGAGTCACCTAGTGCAG,3230 fluorescence intensity (a.u.)
3,CGTCCGTCATTGATTATGCCAGATCATAGCTGTACGTCGTCGGAGTCACCTAGTGCAG,6550 fluorescence intensity (a.u.)
4,GAGCTCCGACGAGCACCTCCCTGAAGCGTGGCAGGTCGAGCGGAGTCACCTAGTGCAG,3900 fluorescence intensity (a.u.)
5,TCATCTCTTCTCATCCATTTGCAATATCAAAATCACGGTGCGGAGTCACCTAGTGCAG,3210 fluorescence intensity (a.u.)
6,AGCTTGTAAAATTCCTTTTAGTTGTGATTAGTGATAATTACGGAGTCACCTAGTGCAG,18800 fluorescence intensity (a.u.)
7,GGTTAAGTAATCAACCAGTGATAGTTGGTGTGTTTATGTACGGAGTCACCTAGTGCAG,28300 fluorescence intensity (a.u.)
8,AGAGCTGACTCACATAGTGCCAGCCTGGCCATTGTTTCTGCGGAGTCACCTAGTGCAG,13300 fluorescence intensity (a.u.)
9,CTTTACATGGGCCTTGAGCCCATGGGCTCAATGTTTCGGCCGGAGTCACCTAGTGCAG,29600 fluorescence intensity (a.u.)
10,GTTGATAGTTGTCATATGCACTCCTTGTTAAGCTCGCTATCGGAGTCACCTAGTGCAG,3170 fluorescence intensity (a.u.)
11,TCCACCTCCGCTGCGTGCTCCCCTCCCTGCGTCGGCGCCCCGGAGTCACCTAGTGCAG,3960 fluorescence intensity (a.u.)
12,GAGTTTAATTAATTAATTTCTTAAAATTGATGTCATCACACGGAGTCACCTAGTGCAG,3140 fluorescence intensity (a.u.)
13,GTCTCCTGACGCGCACACGCCACCAACACCGCGACGCGACCGGAGTCACCTAGTGCAG,3820 fluorescence intensity (a.u.)
14,ACGTAGCCGTCACCGGGTTATAGCTGTTGCAAGCGGCGTCCGGAGTCACCTAGTGCAG,4290 fluorescence intensity (a.u.)
15,GTTGGTGGTGTAAGTGCAACAAGGGATGGCGTTGGTATAACGGAGTCACCTAGTGCAG,13400 fluorescence intensity (a.u.)
16,TTTGGTGGTATGACGTCCCTGAAAAGGTGGTTCGAGGATGCGGAGTCACCTAGTGCAG,4360 fluorescence intensity (a.u.)
17,ACACGGCCTATAAATATCTAACCATCCTTTGCCTGTCGAGCGGAGTCACCTAGTGCAG,4970 fluorescence intensity (a.u.)
18,ACTACTAGTAAAATTGTAATGGTCGTGTCATGTCGTTCTTCGGAGTCACCTAGTGCAG,5290 fluorescence intensity (a.u.)
19,TAGTTTTGTGATACACCGAGTTAAATATGTAGTTTTGTTACGGAGTCACCTAGTGCAG,4230 fluorescence intensity (a.u.)
20,GTCAGGTGGCGGCGGCGGCGGTGGTGGCGGTGGAGGTGGACGGAGTCACCTAGTGCAG,5570 fluorescence intensity (a.u.)
21,ATTCGTGTCCGAAAATCACTTCCAACACCCGATCAAACATCGGAGTCACCTAGTGCAG,3880 fluorescence intensity (a.u.)
22,CAAGCACAAACACGATCATCAAGGTCATGACAGTTCCTAGCGGAGTCACCTAGTGCAG,3830 fluorescence intensity (a.u.)
23,CCGATTAGACTATCGTGCCATCAACACTGCTCGGCGGCGTCGGAGTCACCTAGTGCAG,10700 fluorescence intensity (a.u.)
24,AGGTTCGGGGATCTTGATGTGGCAATGGAATTGCTTGGGCCGGAGTCACCTAGTGCAG,5200 fluorescence intensity (a.u.)
25,GAGTGAGGGATCTAGAAGATGACACATGTGCATCTCTGATCGGAGTCACCTAGTGCAG,5170 fluorescence intensity (a.u.)
26,ACCAAATTAGTGGCTGTACCGAACGTTATTAGCGCTTTAACGGAGTCACCTAGTGCAG,14900 fluorescence intensity (a.u.)
27,TTTAAACATGTGCACATGCACTGTGCTGCCACGACGGAGGCGGAGTCACCTAGTGCAG,4120 fluorescence intensity (a.u.)

row,Sequence,binding signal
1,TATCCTCTCCCGGTGTCCACGCGTGCCATTGCATTGCATTCGGAGTCACCTAGTGCAG,3630 fluorescence intensity (a.u.)
2,ACTTGTTTGGAAGGTAGCAACAGTACACTATACACTGACTCGGAGTCACCTAGTGCAG,3540 fluorescence intensity (a.u.)
3,TCCTGATGCCGCCACCACCTCCTTCGCTGTTACCACCTCTCGGAGTCACCTAGTGCAG,4090 fluorescence intensity (a.u.)
4,AGTTCAATTGCTTTGATGAGTGAGCAGAGAGATGATGCAGCGGAGTCACCTAGTGCAG,3280 fluorescence intensity (a.u.)
5,TGGGCCCGCGCCACGTGCATCCAGCATCAATCCACCACATCGGAGTCACCTAGTGCAG,20200 fluorescence intensity (a.u.)
6,GACGACGGCGGCGGGAGCAATCCGCGGCGACGGGGCGGGGCGGAGTCACCTAGTGCAG,4330 fluorescence intensity (a.u.)
7,GCAATGACAAAGTGTTACGGTGTATTCTTAACATCATTCTCGGAGTCACCTAGTGCAG,3280 fluorescence intensity (a.u.)
8,AAAGTCAGAGAAAGGTATGTTAGATTGGCTAGTTAGTTTGCGGAGTCACCTAGTGCAG,21600 fluorescence intensity (a.u.)
9,CACTCTCCTCCTACACTGCATGCTGCTGCTGACGTGGCTCCGGAGTCACCTAGTGCAG,24900 fluorescence intensity (a.u.)
10,AGTGACAGCTCAGGCTTTGTCGATGTCGTCTCCACTACCGCGGAGTCACCTAGTGCAG,5470 fluorescence intensity (a.u.)
11,CTTTGTTAGTGATAATATATAATGTTTGTTATACAGTCATCGGAGTCACCTAGTGCAG,3750 fluorescence intensity (a.u.)
12,ATTTGCCACTTTTGCCCACGTGGCATGCCAACGTAGCAATCGGAGTCACCTAGTGCAG,23000 fluorescence intensity (a.u.)
13,TAATTGTATTTCATAGATAATCCATGCACGTCATTTCCTTCGGAGTCACCTAGTGCAG,5490 fluorescence intensity (a.u.)
14,ATTAGTTATGTGCTAATGAGTCACTCCATTTTGGTGTTAACGGAGTCACCTAGTGCAG,4310 fluorescence intensity (a.u.)
15,CTCCACCGCCACCGCCGCCACCTCGCGAGCAGCGGCCCTGCGGAGTCACCTAGTGCAG,3960 fluorescence intensity (a.u.)
16,TCGCCGGTGTGCAAGATGTGATGTGCTTAAGGTATTAATGCGGAGTCACCTAGTGCAG,3320 fluorescence intensity (a.u.)
17,CCGGCCCACGCCACGCCGTCCCCATCACATCACACCGGCCCGGAGTCACCTAGTGCAG,3930 fluorescence intensity (a.u.)
18,GTTCTACGGCGACGACGCCAAGTCGCTGATCCTGCTCATCCGGAGTCACCTAGTGCAG,3670 fluorescence intensity (a.u.)
19,GTCGCCAGCCACGGCAGCTTGCTCCCGCTCGTCACCAAGCCGGAGTCACCTAGTGCAG,3160 fluorescence intensity (a.u.)
20,GAGACCATCTAGCAGGAGACACGTGGGCTACCACGTGGCACGGAGTCACCTAGTGCAG,14200 fluorescence intensity (a.u.)
21,GTATGCCATCTTGTATCCAACTTCGTCACCCGGTATCCTTCGGAGTCACCTAGTGCAG,4840 fluorescence intensity (a.u.)
22,ATATCGTGATTATTACTCACCACACGTTGTACACAATGATCGGAGTCACCTAGTGCAG,3750 fluorescence intensity (a.u.)
23,GTATGACTGCATTGCCAGCTGTGGAAACCTAGCCTATTTGCGGAGTCACCTAGTGCAG,6520 fluorescence intensity (a.u.)
24,TGGGTGTTTTGTCCGCGCGCGGTGACGCAGCGTGAGGCGACGGAGTCACCTAGTGCAG,6120 fluorescence intensity (a.u.)
25,TGACTGCGCCCTATTCACCACGTGCCACGTGCGATGACGACGGAGTCACCTAGTGCAG,6370 fluorescence intensity (a.u.)
26,CGCCTCTCGTCGGGTGGTACATCTCCGCCCGGTCGCGCCGCGGAGTCACCTAGTGCAG,16600 fluorescence intensity (a.u.)
27,TGATTTAAACATGTTATGTAAGGAGAGTTGGAGACAGATACGGAGTCACCTAGTGCAG,22000 fluorescence intensity (a.u.)

# Given as tab-separated lines: entries from further up.
row	Sequence	binding signal
13	TAATTGTATTTCATAGATAATCCATGCACGTCATTTCCTTCGGAGTCACCTAGTGCAG	5490 fluorescence intensity (a.u.)
14	ATTAGTTATGTGCTAATGAGTCACTCCATTTTGGTGTTAACGGAGTCACCTAGTGCAG	4310 fluorescence intensity (a.u.)
15	CTCCACCGCCACCGCCGCCACCTCGCGAGCAGCGGCCCTGCGGAGTCACCTAGTGCAG	3960 fluorescence intensity (a.u.)
16	TCGCCGGTGTGCAAGATGTGATGTGCTTAAGGTATTAATGCGGAGTCACCTAGTGCAG	3320 fluorescence intensity (a.u.)
